Data as given in patent publication US5698521A, “Native calcitonin mimetics” (ZymoGenetics, Inc., priority 1995, dated 1997).
Not every detail of the peptide structures is certain; ends, links or a residue may be inferred. Where a SMILES comes first, the peptide text is derived from it. [ ]: non-standard residue; d: D form. ξ: configuration not given here. ξPro(4ξ-Me) = CC1CNC(C(=O)O)C1; ξIva = CCC(C)(N)C(=O)O; Aib = CC(C)(N)C(=O)O

Tests used:
[1] = tested on: PTH-Induced Bone Resorption in Mouse Calvariae; assay: Calvarial assay: PTH-induced bone resorption (calcium release); assay type: cell-based; settings: 1 nM PTH 1-34, 72 hours, read-out: Inhibition of Ca++ Release EC50
Protocol: Calvaria from 4-day old neonatal CD-1 mice (pregnant mice received from Charles River Laboratories, Wilmington, Mass.) were trimmed with fine-tipped scissors to leave the parietal regions, including the sagittal suture. These trimmed bones were placed singly per well into 6-well cell culture cluster plates (Costar, Pleasanton, Calif.) with 1 ml/well of growth medium (DMEM, BioWhittaker, Walkersville, Md.) with 4.5 g/L glucose, 0.29 mg/ml L-glutamine, 1 mM sodium pyruvate, 15% heat-inactivated horse serum, and antibiotics (penicillin-G 50 μg/ml, streptomycin 50 μg/ml, and neomycin 100 μg/ml), and rocked gently (RedRocker™, model PR50-115V, Hoefer, San Francisco, Calif.) at 37° C. in a 5% CO2 humidified incubator for 24 hours preincubation.
Following incubation, medium was removed and replaced with 1.5 ml/well of growth medium containing 1 nM parathyroid hormone (PTH) 1-34 (Sigma) to stimulate bone resorption. For evaluation of the ability of calcitonin mimetics to inhibit PTH induced bone resorption, mimetic compounds in DMSO were added to the growth medium at concentrations ranging from 1-240 μg/ml (final assay concentration of DMSO less than or equal to 1%). In each experiment human calcitonin (0.02-20 nM, 0.2-2 nM preferred) was added to PTH treated bones as a positive control. […]

[2] = tested on: osteoclasts in mouse calvariae; assay: Calvaria histology (TRAP-stained osteoclast number and size); assay type: cell-based; settings: PTH-treated mouse calvariae; the cell wraps over two lines: 'Inhibition of osteoclast size'
From the text: To confirm the findings in the calvarial bone resorption assay employing calcium release from culture mouse calvariae, selected bones were fixed in 10% neutral buffered formalin and demineralized in 5% formic acid with 5% formalin. The bones were dehydrated through an ascending series of ethanol concentrations, infiltrated in glycol methacrylate, and embedded using a JB-4 embedding kit (PolySciences, Warrington, Pa.) (Liu and Kalu, J. Bone Miner. Res., 5:973-82, 1990). Cross sections of calvariae cut at 5 μm were obtained and stained for tartrate-resistant acid phosphatase (TRAP) activity and counterstained with methyl green and thionin for cell morphology (Liu and Kalu, J. Bone. Miner. Res. 1990, supra). Osteoclasts were identified by TRAP stain, multinucleation, large cell size, and irregular cell shape. The number of osteoclasts were counted from endocranial and ectocranial bone surfaces and expressed as number/mm perimeter. The size of all the osteoclasts counted was also measured using a Bone Morphometry program (Lui and Kalu, supra.; Bain et al., J. Done Miner. Res. 8:435-42, 1993). […] This PTH-induced increase was suppressed by treatment with human calcitonin.
Calcitonin mimetic compounds were evaluated in a similar fashion for their ability to suppress PTH-induced increases in osteoclast number and size. Cell toxicity (or death) was also evaluated morphologically. […]

In the case of `CC[C@H](C)[C@H](NC(=O)C(C)(C)NC(=O)[C@H](CCC(N)=O)NC(=O)C(C)(CC)NC(=O)[C@H](Cc1c[nH]c2ccccc12)NC(C)=O)C(=O)N[C@H](C(=O)NC(C)(C)C(=O)N[C@@H](CC(C)C)C(=O)NC(C)(C)C(=O)N1CCC[C@H]1C(=O)N[C@@H](CCC(N)=O)C(=O)NC(C)(C)C(=O)N1CCC[C@H]1C(=O)NC(C)(C)C(=O)N1CC(C)CC1C(=O)N[C@@H](Cc1ccccc1)C(=O)O)[C@@H](C)O` (stereo partly drawn) [ZG 2807 B, Acetyl-Trp-Xaal-Gln-Aib-Ile-Thr-Aib-Leu-Aib-Pro-Gln-Aib-Pro-Aib-Xaa2-Phe] (Ac-W[ξIva]Q[Aib]IT[Aib]L[Aib]PQ[Aib]P[Aib][ξPro(4ξ-Me)]F-OH), the EC50 [1] is reported as 38.4 µM and the Histology [2] is reported as “Inhibition of osteoclast”.
